# According to the supplement of paper PMC3334620:
# In all, about 33,000 sequences were measured (“E-score (-0.5 to 0.5)”: median about -0.016, highest 2% from about 0.3 on). Some of the results follow.
# Target: T1, Yer184c (UniProt P39961)
# T1 sequence: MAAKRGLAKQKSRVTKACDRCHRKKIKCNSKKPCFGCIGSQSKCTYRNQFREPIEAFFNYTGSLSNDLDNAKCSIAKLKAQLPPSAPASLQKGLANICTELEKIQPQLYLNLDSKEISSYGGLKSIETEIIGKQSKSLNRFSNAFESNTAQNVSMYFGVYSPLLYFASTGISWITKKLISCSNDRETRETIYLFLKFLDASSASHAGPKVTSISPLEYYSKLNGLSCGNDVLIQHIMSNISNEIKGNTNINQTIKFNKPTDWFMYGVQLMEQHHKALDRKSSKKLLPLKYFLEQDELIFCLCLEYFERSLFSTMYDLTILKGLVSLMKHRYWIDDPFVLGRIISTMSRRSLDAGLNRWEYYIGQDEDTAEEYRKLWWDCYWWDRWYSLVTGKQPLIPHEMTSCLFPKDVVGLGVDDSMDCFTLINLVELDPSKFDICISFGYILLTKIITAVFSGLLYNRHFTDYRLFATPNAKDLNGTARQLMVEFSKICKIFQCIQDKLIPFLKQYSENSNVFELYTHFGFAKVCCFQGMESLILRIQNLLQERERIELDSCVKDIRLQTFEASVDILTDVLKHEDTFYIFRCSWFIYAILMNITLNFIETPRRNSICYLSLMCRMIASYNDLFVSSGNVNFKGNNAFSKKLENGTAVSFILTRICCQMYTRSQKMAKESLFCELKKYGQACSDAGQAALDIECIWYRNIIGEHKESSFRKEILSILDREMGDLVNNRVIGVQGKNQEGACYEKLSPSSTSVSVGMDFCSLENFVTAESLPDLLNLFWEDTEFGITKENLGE
# Assay: PBM E-score (8-mer binding enrichment) (E-score (-0.5 to 0.5)); higher = stronger / more preferred TF binding
# Details: protein concentration: 100 nM; construct: GST-full length
# How it was run: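 E-scores (a modified Wilcoxon-Mann-Whitney statistic) were assigned by the Universal PBM Analysis Suite to every ungapped eight-base word pooled with its reverse complement. The input came from universal all-10-mer Agilent arrays made double-stranded by primer extension and probed with GST-tagged yeast transcription factors at about 100-200 nM. Fluorescent anti-GST detected bound protein, and masliner normalised the scans.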
row,Sequence,PBM E-score
1,AATCTGTG,-0.0639
2,AACTAGCG,0.0167
3,AGACGGCG,0.0535
4,CTCATGAC,0.0456
5,AGTCGGAG,-0.0456
6,GGCACGTA,-0.0256
7,GCAACGGC,0.134
8,ATACGGGG,-0.124
9,CTTTCGAC,-0.108
10,AAACTGGC,-0.166
11,ATCAGAAC,0.143
12,AGGGGGTA,-0.452
13,AGCTGGCA,-0.144
14,CCTTGCGA,-0.165
15,ACACATTA,0.0161
16,ACGCATAA,0.0303
17,GGCCCTCA,-0.357
18,AGCCCTGG,-0.263
19,GCCACTAC,-0.187
20,ACAAAGCT,0.123
21,AATAGTAG,0.149
22,AAAGTACG,0.00128

row,Sequence,PBM E-score
1,GTCATACA,-0.0809
2,GTTTGATA,0.193
3,CGCAATTA,0.153
4,ATTATACC,0.227
5,TAGCCAAA,-0.0129
6,ATATTGCA,0.0979
7,CTCTAGTC,-0.244
8,TGACCCAA,-0.169
9,ATATCGCC,0.191
10,GCCTTCAA,-0.0184
11,AGTGCATG,-0.111
12,AACACACT,-0.0687
13,CCTAGCGC,0.0279
14,ACTTTCAC,0.085
15,CAACCGTC,-0.00179
16,CACCAATA,0.011
17,CGCACGTC,-0.0918
18,GCAATTCA,0.0386
19,GAGCCGTA,0.307
20,CCCCACTC,-0.329
21,AGCTGGCG,-0.266
22,ACCTGCTC,-0.143

row,Sequence,PBM E-score
1,CATGTAAC,-0.0822
2,TAGAGTGA,-0.106
3,AGACTAAT,0.168
4,ACCAGATA,0.142
5,AAGAGGTA,-0.129
6,GACATCTC,-0.0181
7,CGTTGTAG,0.165
8,AACGCTTA,-0.163
9,TATGCGAA,0.106
10,CTTAGGCA,-0.166
11,ACCGTCAC,-0.186
12,CAAAGGAA,0.106
13,AAGTCTAT,-0.0518
14,CATTTGGG,-0.207
15,CGCTATTA,0.126
16,AGGTATCG,0.134
17,CTGGGGTC,-0.251
18,GACCCCGC,-0.102
19,AGTGGACG,0.0349
20,ACTATTTG,0.0163
21,AACCTGTA,-0.109
22,CTTGGCTA,-0.17

# 3 records drawn at random from those above, as already listed:
row,Sequence,PBM E-score
22,CTTGGCTA,-0.17
19,AGTGGACG,0.0349
20,ACTATTTG,0.0163

# Next entries follow.

row,Sequence,PBM E-score
1,CCACCCTC,-0.0355
2,CCCAGGAA,-0.237
3,ATGCCGAA,0.408
4,GAAGACGA,-0.0807
5,ACGTTGCA,0.0145
6,ATTCGAAT,-0.0224
7,AGCAATTA,0.125
8,AACTGAGG,-0.00025
9,GGTGAACA,-0.0714
10,AATGACTG,0.0667
11,ACGCAATC,-0.0855
12,ACGTTCCA,-0.125
13,AACTAGGT,0.161
14,CCTGGACG,-0.284
15,AAATCTCT,-0.0406
16,GTAACTAC,0.0431
17,CGGAGGCA,0.0415
18,CGACAGAC,-0.206
19,AGGTACAA,0.00829
20,CGAAGCCA,-0.0538

# Given with tabs: part of the list above
row	Sequence	PBM E-score
8	TGACCCAA	-0.169
16	GTAACTAC	0.0431
